Measured values from paper PMC9576705.
Results are given in words; binding and its absence hold for the method and conditions named. In cells and extracts the contact can be indirect. Some binding calls cover weakened binding; strength is not graded here.

Sequences of proteins named here, by UniProt entry; tags and fusion partners are left off. A change or cut given only in a name is not applied to a line headed by its entry. A line that says so, or that is headed by a name, gives the form on record, which may keep a tag or linker. Residues count along the entry.
sirtuin5 (SIRT5), endogenous (human (endogenous in HCT116 and LoVo)) (Q9NXA8, residues 37-310): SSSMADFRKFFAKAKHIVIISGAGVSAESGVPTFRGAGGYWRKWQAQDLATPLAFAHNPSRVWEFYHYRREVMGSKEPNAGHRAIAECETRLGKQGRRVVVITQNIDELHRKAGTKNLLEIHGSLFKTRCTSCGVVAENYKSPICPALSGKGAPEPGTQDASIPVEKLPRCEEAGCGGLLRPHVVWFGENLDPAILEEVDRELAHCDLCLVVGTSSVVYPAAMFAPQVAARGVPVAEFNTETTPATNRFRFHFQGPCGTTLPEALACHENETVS
FLAG-SIRT5 H158Y (Q9NXA8, form named): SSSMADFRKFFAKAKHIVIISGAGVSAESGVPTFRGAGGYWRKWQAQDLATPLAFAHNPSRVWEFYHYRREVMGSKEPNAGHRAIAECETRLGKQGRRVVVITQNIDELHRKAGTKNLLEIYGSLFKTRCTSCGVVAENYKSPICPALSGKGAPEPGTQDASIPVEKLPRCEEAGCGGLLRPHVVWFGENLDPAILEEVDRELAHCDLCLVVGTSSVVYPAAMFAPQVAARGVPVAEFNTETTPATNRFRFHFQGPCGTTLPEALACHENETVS

Experiments:
[1] = target: FLAG-SIRT5 H158Y (UniProt Q9NXA8); test: co-IP; FLAG-SIRT5 WT or H158Y expressed in HCT116 and LoVo cells, RIPA lysate, Protein G agarose; which partner was precipitated is not told
[2] = target: FLAG-SIRT5 WT (UniProt Q9NXA8); test: as above
[3] = target: sirtuin5 (SIRT5), endogenous (human (endogenous in HCT116 and LoVo)) (UniProt Q9NXA8); test: co-IP; endogenous SIRT5 immunoprecipitated with anti-SIRT5 antibody from HCT116 and LoVo lysates (RIPA buffer, Protein G agarose), Western blot with anti-TKT; IgG immunoprecipitation as control

binding [1]: binds
binding [2]: binds
binding [3]: binds
B1: transketolase (TKT), endogenous (enzyme, UniProt P29401 1-623)
chain: MESYHKPDQQKLQALKDTANRLRISSIQATTAAGSGHPTSCCSAAEIMAVLFFHTMRYKSQDPRNPHNDRFVLSKGHAAPILYAVWAEAGFLAEAELLNLRKISSDLDGHPVPKQAFTDVATGSLGQGLGAACGMAYTGKYFDKASYRVYCLLGDGELSEGSVWEAMAFASIYKLDNLVAILDINRLGQSDPAPLQHQMDIYQKRCEAFGWHAIIVDGHSVEELCKAFGQAKHQPTAIIAKTFKGRGITGVEDKESWHGKPLPKNMAEQIIQEIYSQIQSKKKILATPPQEDAPSVDIANIRMPSLPSYKVGDKIATRKAYGQALAKLGHASDRIIALDGDTKNSTFSEIFKKEHPDRFIECYIAEQNMVSIAVGCATRNRTVPFCSTFAAFFTRAFDQIRMAAISESNINLCGSHCGVSIGEDGPSQMALEDLAMFRSVPTSTVFYPSDGVATEKAVELAANTKGICFIRTSRPENAIIYNNNEDFQVGQAKVVLKSKDDQVTVIGAGVTLHEALAAAELLKKEKINIRVLDPFTIKPLDRKLILDSARATKGRILTVEDHYYEGGIGEAVSSAVVGEPGITVTHLAVNRVPRSGKPAELLKMFGIDRDAIAQAVRGLITKA
